Measurements from PubChem BioAssay AID540275 (National Center for Advancing Translational Sciences (NCATS), 2011).
In all, about 320,000 compounds went through this assay and about 620 (0.19%) were called active. The shares of active, inactive and inconclusive entries below differ from those in the screen. No stated cut-off is given here; in the data, active means activation above about 80%; inconclusive means between about 30% and that limit; inactive means weaker than that.

Sequences of proteins named here, by UniProt entry; tags and fusion partners are left off.
UniProt Q8NER1, whole entry, looked up: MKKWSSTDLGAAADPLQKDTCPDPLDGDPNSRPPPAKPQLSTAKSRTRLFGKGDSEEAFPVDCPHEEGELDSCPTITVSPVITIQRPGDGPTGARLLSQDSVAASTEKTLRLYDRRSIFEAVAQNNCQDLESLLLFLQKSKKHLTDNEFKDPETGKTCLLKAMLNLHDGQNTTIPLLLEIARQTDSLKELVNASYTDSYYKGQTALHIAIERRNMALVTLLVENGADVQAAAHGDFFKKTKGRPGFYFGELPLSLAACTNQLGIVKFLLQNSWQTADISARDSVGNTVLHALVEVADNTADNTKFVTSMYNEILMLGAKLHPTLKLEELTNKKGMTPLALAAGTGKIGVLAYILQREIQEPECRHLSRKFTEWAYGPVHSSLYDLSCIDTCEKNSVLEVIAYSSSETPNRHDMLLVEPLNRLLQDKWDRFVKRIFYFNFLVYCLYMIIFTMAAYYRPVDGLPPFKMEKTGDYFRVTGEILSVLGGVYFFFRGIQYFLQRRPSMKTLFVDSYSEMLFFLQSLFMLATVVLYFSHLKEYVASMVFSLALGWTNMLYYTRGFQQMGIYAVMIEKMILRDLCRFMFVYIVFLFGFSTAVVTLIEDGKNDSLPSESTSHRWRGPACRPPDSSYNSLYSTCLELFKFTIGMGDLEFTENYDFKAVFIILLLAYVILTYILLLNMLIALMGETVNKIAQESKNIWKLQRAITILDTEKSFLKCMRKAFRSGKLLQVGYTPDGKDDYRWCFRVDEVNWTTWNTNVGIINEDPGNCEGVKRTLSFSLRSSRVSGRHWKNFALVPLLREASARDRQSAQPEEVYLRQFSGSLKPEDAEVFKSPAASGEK

Biological target: Transient receptor potential cation channel subfamily V member 1 (Homo sapiens) (UniProt Q8NER1)
Assay: HTS Assay for Compounds that Act as Agonists of the Vanilloid Receptor 1; further: 0% is about no effect
Conditions: TRPV1-expressing cells, Fluo-8 calcium influx, agonist mode; at 8.33 µM, stronger effect = higher value
Method in brief: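 TRPV1-expressing cells were cultured overnight at 35.5C and loaded with Fluo-8 calcium dye for 40 to 90 min at room temperature. After a 10 s baseline, compound was added and calcium influx was read kinetically for 3 min (ex 480/em 520 nm).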

SMILES | activation
NNC(=O)C1CC(O)CN1S(=O)(=O)c1ccc2ccccc2c1 (stereo unspecified) | inactive: -3.31%
Cc1ccc(S(=O)(=O)NCCn2c(C)cc3ccccc32)cc1 | inactive: 0.549%
Cc1c(Cl)cccc1NC(=S)NCc1cccs1 | inconclusive: 46.8%
CC1=C(C(=O)OCCOc2ccccc2)C(c2ccc(C)o2)C2=C(CC(C)(C)CC2=O)N1 (stereo unspecified) | inconclusive: 36.4%
CCOC(=O)c1ccc(N2C(=O)c3n[nH]c(-c4ccco4)c3C2c2cccc([N+](=O)[O-])c2)cc1 (stereo unspecified) | inactive: 0.678%
O=C(N/N=C/c1ccc(Br)s1)c1ccccn1 | active: 86.9%
Cc1cc(-c2ccccc2)nc(N/N=C/c2cccnc2)n1 | inconclusive: 61.4%
O=C(/C=C/c1ccc(F)cc1)N1CCN(c2ccccn2)CC1 | inconclusive: 38.1%
Cc1ccccc1C(=O)Nc1ccccc1N1CCCCC1 | inconclusive: 39.9%
COc1cc(/C(C)=N/NC(=O)CSc2nc3ccccc3[nH]2)ccc1O | inconclusive: 38.2%
COc1ccc(NS(=O)(=O)c2cccc3nsnc23)cc1Cl | inconclusive: 34.5%
O=C(CSc1nc2ccccc2[nH]1)Nc1ccc2c(c1)CCC2 | inconclusive: 49.1%
Cc1ccc(S(=O)(=O)CC(c2ccccc2)N2CCCCC2)cc1 (stereo unspecified) | inactive: 13.6%
CSc1ccccc1OCc1cc(C(=O)NCCC2=CCCCC2)no1 | inconclusive: 38.3%
CCO[C@H]1OC(C(=O)N2CCCCCCC2)=C[C@@H](c2csc3ccccc23)[C@@H]1CCCO | inconclusive: 62.4%
OC(COc1ccc(Cl)cc1)CN1CCN(c2cccc(Cl)c2)CC1 (stereo unspecified) | inactive: 2.26%
CCCCN1C=C(C(=O)OC)C(c2ccccc2Cl)C(C(=O)OC)=C1 | inconclusive: 33.6%
C=CCc1cc(Cl)ccc1OCCNCCN1CCOCC1 | inactive: 13%
Cc1ccc(-n2cc(CN3CCC(CO)(Cc4ccccc4)CC3)cn2)cc1 | inactive: 11.8%
O=C(O)CCc1nn2c3ccccc3n(Cc3ccccc3F)c2nc1=O | inactive: -3.64%
Cc1ccc(SCCNC(=O)/C=C/c2cccc([N+](=O)[O-])c2)cc1 | inconclusive: 37.4%
Cc1nc([N+](=O)[O-])c(Br)n1Cc1ccccc1 | inactive: 10.6%
COC(=O)C(C)Sc1ccc2nnc(-c3ccccc3)n2n1 (stereo unspecified) | inactive: 6.55%

Five successive compounds already listed:
SMILES | activation
Cc1c(Cl)cccc1NC(=S)NCc1cccs1 | inconclusive: 46.8%
CC1=C(C(=O)OCCOc2ccccc2)C(c2ccc(C)o2)C2=C(CC(C)(C)CC2=O)N1 (stereo unspecified) | inconclusive: 36.4%
CCOC(=O)c1ccc(N2C(=O)c3n[nH]c(-c4ccco4)c3C2c2cccc([N+](=O)[O-])c2)cc1 (stereo unspecified) | inactive: 0.678%
O=C(N/N=C/c1ccc(Br)s1)c1ccccn1 | active: 86.9%
Cc1cc(-c2ccccc2)nc(N/N=C/c2cccnc2)n1 | inconclusive: 61.4%

More entries:

SMILES | activation
CC1Cc2ccccc2N1C(=O)CCn1c(=O)oc2ccccc21 (stereo unspecified) | inconclusive: 31.8%
Fc1ccc(CNn2cnnc2SCc2ccc(F)cc2)cc1 | inconclusive: 33.1%
CCOc1cccc(CN2CCCC(C(=O)c3cccc(C(F)(F)F)c3)C2)c1O (stereo unspecified) | inconclusive: 44.1%
CCN1C=CC2=C(C#N)C(N)C(C#N)(C#N)C(c3ccccc3C(F)(F)F)C2C1 (stereo unspecified) | inactive: 7.18%
Cc1ccc(COn2nnc3ccc(S(=O)(=O)N4CCOCC4)cc32)cc1 | inconclusive: 70.5%
CCSc1nnc(-c2cccs2)o1 | inactive: 2.59%
C=CCn1c(SCC(N)=O)nnc1-c1cccc(Br)c1 | inactive: -1.6%
CN(C)c1ccc(/C=C2\C(=N)N3N=C(CC(=O)N4CCCCC4)SC3=NC2=O)cc1 | inconclusive: 31.2%
CCCN(CCC)C(=O)CC(c1ccccc1)c1cc(C)ccc1O (stereo unspecified) | inconclusive: 31.5%
COc1cccc(Cn2nnc3c(=O)[nH]c(C4CCCN(C(=O)c5ccccc5Cl)C4)nc32)c1 (stereo unspecified) | inconclusive: 45.3%
O=C(NCCc1ccc(Cl)cc1)c1ccc2ccccc2n1 | inconclusive: 41%
CCOC(=O)N1CCC(NC(=O)c2cc3c(-c4ccccc4F)nn(C)c3s2)CC1 | inactive: -1.44%
CC(=O)NCCCc1nc2ccccc2n1Cc1ccc(C)cc1 | inconclusive: 70.3%
O=C(Cn1cc(C(=O)C2CC2)c2ccccc21)NCc1ccccc1 | inconclusive: 39.6%
Nc1ccc2nc3c(=O)n(C4CCCCC4)c(=O)[nH]c3nc2c1 | inconclusive: 70.3%
COc1cccc(NC(=O)CN2C(=O)NC(C)(CC(C)C)C2=O)c1 (stereo unspecified) | inactive: 6.88%
N/C(=N\OC(=O)c1ccc(Cl)c([N+](=O)[O-])c1)c1ccccn1 | inconclusive: 46.2%
Cc1onc(-c2ccccc2Cl)c1C(=O)NC(C)c1ccccc1 (stereo unspecified) | inactive: 8.01%
NS(=O)(=O)c1ccc(CCNC(=O)c2cc(-c3ccccn3)nc3ccc(Br)cc23)cc1 | inconclusive: 34.5%
CCO[C@H]1OC(C(=O)N2CCN(Cc3ccc4c(c3)OCO4)CC2)=C[C@@H](c2ccc(C(F)(F)F)cc2)[C@@H]1CCCO | inconclusive: 61.5%
CCOC(=O)c1sc(NC(=O)c2cc(S(=O)(=O)N3CCOCC3)ccc2C)nc1C | inconclusive: 60.7%
CC(C)(C)NC(=O)CCCSc1nc2ccccc2s1 | inconclusive: 51.2%
CCOC(=O)c1cnc(SCCc2ccccc2)nc1N | inconclusive: 31.4%

SMILES | activation
CCN(CC)C(=O)Oc1cc(COC)nc(-c2ccccc2)n1 | inconclusive: 41.5%
CC(Sc1nnnn1C1CCCCC1)C(=O)O (stereo unspecified) | inconclusive: 62.4%
Cc1cccc(NC(=S)NC(C)CCc2ccccc2)c1 (stereo unspecified) | inconclusive: 37.3%
NS(=O)(=O)c1cccc(NC(=O)Cc2ccc(Cl)c(Cl)c2)c1 | inconclusive: 35%
COc1cc2nc(C)sc2cc1SC | inactive: 0.584%
Cc1ccccc1C(=O)Nc1ccc(N2CCCCCC2)cc1 | inconclusive: 71.7%
Cc1cccc(N2CCN(CC(=O)NCc3ccccc3)CC2)c1C | inconclusive: 76.4%
Cc1ccc(NC(=O)c2cc(S(=O)(=O)c3ccccc3)ccc2Cl)cc1 | inconclusive: 41.2%
CCOc1ccc(N(CC(=O)NC(C)(C)C)S(=O)(=O)c2c(C)noc2C)cc1 | inconclusive: 37.5%
CC(=O)Nc1ccc(NC(=O)CC2SC(=O)N(CC(=O)c3ccccc3)C2=O)cc1 (stereo unspecified) | inconclusive: 36.4%
COc1ccc(N(Cc2cc3ccccc3[nH]c2=O)S(=O)(=O)c2ccc(C)cc2)cc1 | inconclusive: 49.8%
Cc1cc(-c2nnc(-c3cc4ccccc4oc3=O)o2)c(C)n1-c1ccccc1 | inactive: 11.2%
Cc1cc(C(C)C)n2c(nc3ccccc32)c1C#N | inactive: 0.688%
Nc1ccc(C(=O)OCC(=O)N2c3ccccc3Sc3ccccc32)cc1[N+](=O)[O-] | inactive: 0.7%
O=C(Nc1cccc(O)c1)c1cc2nc(-c3ccccc3)cc(-c3ccccc3)n2n1 | inconclusive: 30.2%
O=C(Nc1ccc(SC(F)F)cc1)C1CC(=O)N(Cc2ccccc2)C1 (stereo unspecified) | inconclusive: 41.3%
Cc1c(C(=O)N2CCCC2)oc2c1-c1nn(CC(=O)NCCCN3CCCCC3)cc1CC2 | inconclusive: 46.3%
CCc1ccc(N/C(=N/c2nc(C)cc(C)n2)NC(C)=O)cc1 | inconclusive: 61%
COc1ccc(CNC(=S)N2CCN(S(=O)(=O)c3cccc(F)c3)CC2)cc1 | inconclusive: 40.2%
Cn1c(SCC(=O)NCc2ccco2)nnc1-c1ccccc1 | inactive: 2.36%
CCCCN(CCCC)S(=O)(=O)c1ccc(NC(=O)Cc2cccs2)cc1 | inconclusive: 57.2%
Cc1cc2oc(=O)cc(CN3CCOCC3)c2cc1C(C)C | inconclusive: 42%
Cc1c(C)c2c(OCC(=O)N3CCC(O)CC3)cc3c(c2oc1=O)CCC(C)(C)O3 | inconclusive: 55%

SMILES | activation
CN(CC(=O)Nc1cccc(F)c1)C(=O)CCC1CCCCC1 | inconclusive: 45.3%
Cc1cc(/C=C2\C(=N)N3N=C(C(C)C)SC3=NC2=O)c(C)n1Cc1ccccc1 | inconclusive: 72.7%
O=C(Nc1nc2ccc(F)cc2s1)c1ccccn1 | inconclusive: 36.2%
O=C(Nc1cccc(F)c1)C1CC(=O)N(c2ccc(Cl)cc2)C1 (stereo unspecified) | inconclusive: 50.2%
S=C(Nc1cc(Cl)cc(Cl)c1)N1CCN(c2ccccn2)CC1 | inactive: -2.11%
COc1ccc(C(=O)C2CCCN(Cc3ccc4nonc4c3)C2)c(OC)c1 (stereo unspecified) | inconclusive: 42.8%
c1ccc(-c2nnc(-c3ccncc3)nc2-c2ccccc2)cc1 | inconclusive: 72.9%
CCCCCCn1cc(C(=O)O)c(=O)c2cc(F)c(N3CCCCC3)cc21 | inconclusive: 30.2%
O=C(NN=C1C2CC3CC1CC(Cl)(C3)C2)c1ccccn1 | inconclusive: 32.9%
Cc1cc(Cl)ccc1OCCCC(=O)NN | inconclusive: 69.9%
COc1ccc(NC(=O)Cc2cccs2)c(OC)c1 | inconclusive: 59.7%
COc1ccc(NC(=O)c2ccc3[nH]c(=O)c(=O)[nH]c3c2)c(OC)c1 | inactive: 1.84%
COC(=O)c1ccccc1NC(=O)Cn1cnc2cc(C)c(C)cc21 | inactive: 16.5%
C=CCCC(=O)N1CCCC(C(=O)c2cccc(OC)c2)C1 (stereo unspecified) | inactive: 10.4%
COc1ccc(Cc2noc(CN3CCCC(C(=O)c4cccs4)C3)n2)cc1OC (stereo unspecified) | inconclusive: 40.4%
CCC(Sc1nc(C)cc(C)n1)C(=O)Nc1ccc(Cl)cn1 (stereo unspecified) | inconclusive: 42.4%
O=C(CS(=O)c1cccc(C(F)(F)F)c1)Nc1ccccc1Cl (stereo unspecified) | inactive: 1.92%
O=c1c2c(nc3n1CCCCC3)-c1ccccc1CC21CCCC1 | inconclusive: 36.5%
CCCCC(O)(c1ccc(CC)cc1)C(CN1CCOCC1)c1ccccc1 (stereo unspecified) | inconclusive: 67.1%
COc1cc(OC)c2ccc(=O)oc2c1C(CC(=O)N1CCCC(C)C1)c1ccc2c(c1)OCO2 (stereo unspecified) | inconclusive: 33.1%
Cc1cccc(OCCn2c(CCCO)nc3ccccc32)c1 | inconclusive: 57%
O=C(OCc1cc(=O)n2cc(Br)ccc2n1)C1COc2ccccc2O1 (stereo unspecified) | inactive: 1.33%

Filtered by structure, the entries above containing a tert-butyl group (2)
SMILES | activation
CC(C)(C)NC(=O)CCCSc1nc2ccccc2s1 | inconclusive: 51.2%
CCOc1ccc(N(CC(=O)NC(C)(C)C)S(=O)(=O)c2c(C)noc2C)cc1 | inconclusive: 37.5%
